Data published in the supplement of paper PMC3334620.
In all, about 33,000 sequences were measured (“E-score (-0.5 to 0.5)”: median about -8e-05, highest 2% from about 0.23 on). The list shows a part of the results.

Biological target: T1, Nrg2 (UniProt P38082)
T1 sequence: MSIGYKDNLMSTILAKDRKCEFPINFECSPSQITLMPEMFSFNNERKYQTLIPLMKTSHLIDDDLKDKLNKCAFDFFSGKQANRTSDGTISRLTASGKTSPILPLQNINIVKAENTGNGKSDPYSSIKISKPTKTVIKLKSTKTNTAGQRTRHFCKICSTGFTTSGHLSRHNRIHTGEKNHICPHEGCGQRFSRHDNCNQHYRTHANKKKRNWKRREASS
Test: PBM E-score (8-mer binding enrichment) (E-score (-0.5 to 0.5)); higher = stronger / more preferred TF binding
Details: protein concentration: 100 nM; construct: GST-full length
Method: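 Universal 'all 10-mer' protein binding microarrays (Agilent AMADID 015681) probed with GST-tagged S. cerevisiae TFs (full-length or DBD) made by in vitro transcription/translation (PURExpress), about 100-200 nM. Bound TF was detected with fluorescent anti-GST. Each ungapped 8-mer (which stands for itself and its reverse complement) is scored by the PBM enrichment score (E-score), a modified Wilcoxon-Mann-Whitney statistic from -0.5 to +0.5, computed with the Universal PBM Analysis Suite. Scale: above 0.35 generally sequence-specific binding.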

Row | Sequence | PBM E-score
1 | ATCGGCGA | -0.0472
2 | ATGGCACG | -0.0541
3 | CAACATGG | -0.0246
4 | ACCCTGCA | 0.376
5 | GGGACGTA | -0.0296
6 | AAAAGTGT | 0.0195
7 | AGCATGGG | -0.175
8 | GAATGAGA | 0.114
9 | AATGTGCA | 0.0816
10 | GGAGTGCA | 0.0599
11 | AGTGAGCG | 0.0427
12 | GTAAATAC | -0.0746
13 | AAGCAAGC | -0.0394
14 | AAGTTTCC | 0.133
15 | TTGCGAAA | 0.153
16 | GAAAAGTA | 0.0939
17 | AGAGCTAG | -0.00296
18 | CTAGAGGA | -0.244
19 | GTAGTCAC | -0.0849
20 | AAGGGGTG | -0.00477
21 | CGCTACTC | -0.0612
22 | ACTTCGAT | 0.152

Row | Sequence | PBM E-score
23 | AGTGTAGC | 0.0126
24 | GCCTGCAA | 0.0554
25 | GATCTGCC | 0.0212
26 | AAAGAATC | -0.18
27 | GAGCAGCA | -0.0138
28 | ACAGCAAT | 0.175
29 | CCGTTCCC | -0.0441
30 | ATACGATC | 0.196
31 | CGATGAAC | -0.0145
32 | ACAAGTGG | -0.0859
33 | AGGCGGTC | -0.0583
34 | CCTCGCGA | 0.179
35 | ATCCGTAC | 0.0682
36 | ACATGCAA | 0.125
37 | CTTAAACC | -0.128
38 | GACAATCA | 0.0629
39 | CACGTGGC | -0.313
40 | CCTGTTTA | 0.0654
41 | CGAGTAAG | 0.165
42 | GGCCCACA | -0.0257
43 | GGACCACC | 0.0365
44 | AGCTAGTA | 0.214

Some of the entries so far, as a markdown table:

| Row | Sequence | PBM E-score |
| --- | --- | --- |
| 6 | AAAAGTGT | 0.0195 |
| 7 | AGCATGGG | -0.175 |
| 8 | GAATGAGA | 0.114 |
| 9 | AATGTGCA | 0.0816 |

(continued)

Row | Sequence | PBM E-score
45 | CTTCAAAC | 0.0644
46 | GCGATGAA | 0.0982
47 | AGCTAGCT | 0.244
48 | AGTATTTA | 0.0065
49 | CTGAAACA | -0.107
50 | ATGGTAGA | 0.0815
51 | GAGGAGGC | -0.313
52 | AACACGGT | 0.00997
53 | AACAAATT | 0.251
54 | CTTTCTTC | 0.118
55 | CGATGTAG | -0.117
56 | GGAACATA | 0.0695
57 | CTAACGGA | 0.101
58 | AGAAATAC | 0.128
59 | AGGATACG | -0.197
60 | CCTTAACG | -0.00697
61 | CACCACCA | -0.0541
62 | AAATGCGG | 0.0989
63 | GTTTGAAA | 0.169
64 | ACAATGTG | 0.0207
65 | GCCACATA | 0.075
66 | CGCTTACC | -0.0993

Row | Sequence | PBM E-score
67 | ACATGCGT | -0.0879
68 | CGACGGAC | 0.197
69 | CCATTGGA | 0.00188
70 | GATGTGTA | 0.0509
71 | ATCAAGCG | 0.0683
72 | CATTTCGC | 0.184
73 | CTTTGCGC | 0.136
74 | AAAATGAA | 0.0156
75 | GCGCATTA | 0.166
76 | AGATCTTA | -0.0553
77 | GTTACTCA | 0.157
78 | CTTGCGCA | 0.264
79 | CGGGATGC | -0.163
80 | CGTGATGC | -0.00211
81 | CCGACGGC | -0.193
82 | CAGTCCCG | -0.128
83 | CGTGTCAA | -0.274
84 | GCGATTAA | 0.193
85 | AGTAGCTG | -0.116
86 | AACTATAT | 0.153
87 | GAGGCGTA | 0.0454
88 | CGTGCTAG | -0.162

Row | Sequence | PBM E-score
89 | ATCATCTG | 0.108
90 | ACCATTTG | 0.0653
91 | AAGATTTC | 0.139
92 | TCAGACCA | 0.00081
93 | AGCTTGAA | -0.0726
94 | GAACTAAA | 0.0925
95 | CCTTATGA | 0.12
96 | CCTTTCAG | 0.0381
97 | CAAGTTAC | 0.0198
98 | GGAGCGCA | -0.236
99 | ATTTTACC | 0.181
100 | GTTTGGAA | -0.056
101 | CGCTTCCA | -0.0694
102 | ATAGGCGG | 0.0155
103 | CGCGACAC | 0.00607
104 | GGACAGAC | -0.124
105 | ACCACGTA | -0.278
106 | GAAGGATC | 0.00353
107 | AGTGCGTA | -0.0257
108 | CGAGGAAG | -0.209
109 | GACAGTGC | 0.0298
